Laboratory results published in the supplement of paper PMC12819154, “High-throughput peptide-centric local stability assay extends protein–ligand identification to membrane proteins, tissues and bacteria” (Nature Structural & Molecular Biology, 2025).
This is one part of the list. Most values lie at the level of the controls, where differences are scatter.

The chains behind the UniProt entries cited, without tags or fusion partners. Where a name states a change or a piece, a line headed by the entry shows the natural chain unless it says otherwise.
UniProt P15535: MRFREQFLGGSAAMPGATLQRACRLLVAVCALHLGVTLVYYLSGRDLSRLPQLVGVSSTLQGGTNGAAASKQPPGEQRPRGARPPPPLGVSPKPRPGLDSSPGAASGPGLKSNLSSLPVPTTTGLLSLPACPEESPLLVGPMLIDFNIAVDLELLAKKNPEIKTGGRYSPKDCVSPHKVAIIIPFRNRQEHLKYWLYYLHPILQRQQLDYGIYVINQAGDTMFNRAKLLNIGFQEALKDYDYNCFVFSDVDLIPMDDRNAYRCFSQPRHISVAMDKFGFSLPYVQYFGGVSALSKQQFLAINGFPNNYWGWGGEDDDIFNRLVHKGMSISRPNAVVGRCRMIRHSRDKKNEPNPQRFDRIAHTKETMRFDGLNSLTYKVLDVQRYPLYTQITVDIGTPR
UniProt P05063: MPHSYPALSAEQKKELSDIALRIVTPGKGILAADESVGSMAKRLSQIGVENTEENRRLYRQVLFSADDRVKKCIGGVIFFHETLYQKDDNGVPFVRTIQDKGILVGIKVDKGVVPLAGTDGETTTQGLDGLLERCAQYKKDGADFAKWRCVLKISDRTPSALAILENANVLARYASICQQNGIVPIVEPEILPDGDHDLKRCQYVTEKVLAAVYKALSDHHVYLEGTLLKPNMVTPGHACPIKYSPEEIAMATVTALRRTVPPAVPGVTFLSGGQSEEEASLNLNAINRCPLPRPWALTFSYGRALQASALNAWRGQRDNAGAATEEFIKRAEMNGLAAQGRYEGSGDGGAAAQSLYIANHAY
UniProt P19973, whole entry: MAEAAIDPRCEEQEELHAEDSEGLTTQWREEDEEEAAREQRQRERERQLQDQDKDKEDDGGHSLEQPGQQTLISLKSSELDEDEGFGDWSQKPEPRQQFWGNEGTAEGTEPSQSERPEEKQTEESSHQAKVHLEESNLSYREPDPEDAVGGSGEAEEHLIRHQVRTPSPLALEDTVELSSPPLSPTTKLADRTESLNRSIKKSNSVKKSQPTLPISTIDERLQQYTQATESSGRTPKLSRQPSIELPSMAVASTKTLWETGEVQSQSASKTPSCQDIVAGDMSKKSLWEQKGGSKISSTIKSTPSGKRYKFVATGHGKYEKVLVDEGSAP
UniProt P10649: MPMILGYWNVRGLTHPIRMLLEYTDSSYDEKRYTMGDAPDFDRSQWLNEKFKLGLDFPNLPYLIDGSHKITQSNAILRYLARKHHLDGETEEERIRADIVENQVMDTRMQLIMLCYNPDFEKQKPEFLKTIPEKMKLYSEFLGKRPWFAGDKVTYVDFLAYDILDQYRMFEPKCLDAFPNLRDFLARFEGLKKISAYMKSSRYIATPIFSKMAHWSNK
UniProt P27773: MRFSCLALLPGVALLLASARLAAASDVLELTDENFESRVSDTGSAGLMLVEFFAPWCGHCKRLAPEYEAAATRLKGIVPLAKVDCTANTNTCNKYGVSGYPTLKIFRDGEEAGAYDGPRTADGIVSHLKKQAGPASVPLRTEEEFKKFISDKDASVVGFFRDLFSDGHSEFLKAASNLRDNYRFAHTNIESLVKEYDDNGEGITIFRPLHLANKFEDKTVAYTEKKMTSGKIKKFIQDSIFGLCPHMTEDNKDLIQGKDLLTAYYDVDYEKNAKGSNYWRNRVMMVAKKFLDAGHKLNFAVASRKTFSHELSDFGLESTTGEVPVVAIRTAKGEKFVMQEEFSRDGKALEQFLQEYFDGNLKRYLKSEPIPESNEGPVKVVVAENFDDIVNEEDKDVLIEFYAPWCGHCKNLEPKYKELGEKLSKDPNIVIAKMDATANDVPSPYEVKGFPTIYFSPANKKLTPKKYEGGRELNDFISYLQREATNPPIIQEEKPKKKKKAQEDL
UniProt P04919: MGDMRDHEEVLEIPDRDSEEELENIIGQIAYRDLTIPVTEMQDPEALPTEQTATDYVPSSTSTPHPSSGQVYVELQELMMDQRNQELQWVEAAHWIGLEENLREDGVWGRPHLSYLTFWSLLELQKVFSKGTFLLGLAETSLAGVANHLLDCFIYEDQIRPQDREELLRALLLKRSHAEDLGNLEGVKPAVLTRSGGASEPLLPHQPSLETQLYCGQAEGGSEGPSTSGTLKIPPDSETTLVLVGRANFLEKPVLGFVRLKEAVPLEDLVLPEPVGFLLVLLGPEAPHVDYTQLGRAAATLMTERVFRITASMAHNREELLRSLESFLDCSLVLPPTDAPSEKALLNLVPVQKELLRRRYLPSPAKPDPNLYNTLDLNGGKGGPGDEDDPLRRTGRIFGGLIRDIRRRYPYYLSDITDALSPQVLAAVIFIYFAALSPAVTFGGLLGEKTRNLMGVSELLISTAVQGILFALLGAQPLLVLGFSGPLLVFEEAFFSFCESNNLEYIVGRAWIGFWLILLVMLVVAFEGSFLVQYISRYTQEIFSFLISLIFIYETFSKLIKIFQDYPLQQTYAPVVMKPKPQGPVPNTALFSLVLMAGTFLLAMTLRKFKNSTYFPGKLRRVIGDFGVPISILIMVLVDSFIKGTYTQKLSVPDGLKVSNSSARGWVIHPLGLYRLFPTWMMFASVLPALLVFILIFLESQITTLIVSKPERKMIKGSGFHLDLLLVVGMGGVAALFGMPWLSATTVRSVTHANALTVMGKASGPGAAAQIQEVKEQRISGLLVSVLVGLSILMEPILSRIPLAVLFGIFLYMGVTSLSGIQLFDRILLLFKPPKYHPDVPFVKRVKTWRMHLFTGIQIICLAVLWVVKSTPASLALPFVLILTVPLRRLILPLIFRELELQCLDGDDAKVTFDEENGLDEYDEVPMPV
UniProt P04186, whole entry: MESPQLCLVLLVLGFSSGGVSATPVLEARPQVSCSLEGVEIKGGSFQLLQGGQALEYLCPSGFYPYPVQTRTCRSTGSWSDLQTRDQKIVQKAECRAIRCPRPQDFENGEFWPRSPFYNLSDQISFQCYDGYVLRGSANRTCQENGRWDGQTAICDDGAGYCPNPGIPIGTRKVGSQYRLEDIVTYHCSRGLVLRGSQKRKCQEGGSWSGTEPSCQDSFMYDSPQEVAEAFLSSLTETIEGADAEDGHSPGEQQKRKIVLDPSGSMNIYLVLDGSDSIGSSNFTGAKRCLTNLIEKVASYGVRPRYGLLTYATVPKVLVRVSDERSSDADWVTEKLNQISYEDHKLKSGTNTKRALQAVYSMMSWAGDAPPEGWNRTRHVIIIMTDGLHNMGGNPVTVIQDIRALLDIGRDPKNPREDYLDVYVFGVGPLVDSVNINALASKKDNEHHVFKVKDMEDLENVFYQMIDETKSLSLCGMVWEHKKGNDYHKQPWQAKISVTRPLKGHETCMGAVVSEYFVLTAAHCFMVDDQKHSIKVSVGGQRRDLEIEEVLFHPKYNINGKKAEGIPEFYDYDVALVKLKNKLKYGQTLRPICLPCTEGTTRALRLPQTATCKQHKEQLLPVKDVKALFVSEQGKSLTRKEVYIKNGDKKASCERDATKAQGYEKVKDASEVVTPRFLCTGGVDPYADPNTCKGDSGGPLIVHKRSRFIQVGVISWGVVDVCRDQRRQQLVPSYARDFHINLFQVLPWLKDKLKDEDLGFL
UniProt P10922, whole entry: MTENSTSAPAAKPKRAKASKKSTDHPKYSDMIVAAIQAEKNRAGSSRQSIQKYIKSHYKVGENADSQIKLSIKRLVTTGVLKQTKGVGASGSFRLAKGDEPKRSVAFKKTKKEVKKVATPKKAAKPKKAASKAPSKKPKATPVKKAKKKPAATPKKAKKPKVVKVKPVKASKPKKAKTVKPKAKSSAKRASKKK
UniProt P08103: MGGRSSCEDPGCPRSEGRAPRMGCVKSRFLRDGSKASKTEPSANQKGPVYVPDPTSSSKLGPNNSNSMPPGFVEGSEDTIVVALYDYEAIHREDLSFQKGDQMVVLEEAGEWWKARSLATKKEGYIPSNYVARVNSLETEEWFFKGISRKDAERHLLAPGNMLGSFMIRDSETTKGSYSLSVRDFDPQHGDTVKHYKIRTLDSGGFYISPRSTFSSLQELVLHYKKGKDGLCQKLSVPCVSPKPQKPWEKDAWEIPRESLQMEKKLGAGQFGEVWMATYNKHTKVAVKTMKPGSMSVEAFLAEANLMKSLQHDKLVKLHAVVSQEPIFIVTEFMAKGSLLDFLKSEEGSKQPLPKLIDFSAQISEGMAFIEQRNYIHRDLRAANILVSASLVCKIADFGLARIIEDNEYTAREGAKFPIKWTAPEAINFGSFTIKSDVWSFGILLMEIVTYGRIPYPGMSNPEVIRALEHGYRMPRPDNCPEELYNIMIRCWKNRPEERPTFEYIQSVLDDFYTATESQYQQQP
UniProt P17095: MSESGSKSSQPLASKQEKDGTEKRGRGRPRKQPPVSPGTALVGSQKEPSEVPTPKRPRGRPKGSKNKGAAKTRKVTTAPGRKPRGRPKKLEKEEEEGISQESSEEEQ
UniProt P14152: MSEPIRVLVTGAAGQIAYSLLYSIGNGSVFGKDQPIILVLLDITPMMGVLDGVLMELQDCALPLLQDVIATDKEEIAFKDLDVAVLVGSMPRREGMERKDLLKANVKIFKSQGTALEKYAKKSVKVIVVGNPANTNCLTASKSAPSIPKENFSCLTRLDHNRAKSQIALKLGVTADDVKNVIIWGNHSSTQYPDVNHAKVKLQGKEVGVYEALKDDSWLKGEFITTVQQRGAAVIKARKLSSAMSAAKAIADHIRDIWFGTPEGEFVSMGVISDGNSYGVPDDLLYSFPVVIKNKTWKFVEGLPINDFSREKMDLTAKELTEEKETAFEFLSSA
UniProt P05202: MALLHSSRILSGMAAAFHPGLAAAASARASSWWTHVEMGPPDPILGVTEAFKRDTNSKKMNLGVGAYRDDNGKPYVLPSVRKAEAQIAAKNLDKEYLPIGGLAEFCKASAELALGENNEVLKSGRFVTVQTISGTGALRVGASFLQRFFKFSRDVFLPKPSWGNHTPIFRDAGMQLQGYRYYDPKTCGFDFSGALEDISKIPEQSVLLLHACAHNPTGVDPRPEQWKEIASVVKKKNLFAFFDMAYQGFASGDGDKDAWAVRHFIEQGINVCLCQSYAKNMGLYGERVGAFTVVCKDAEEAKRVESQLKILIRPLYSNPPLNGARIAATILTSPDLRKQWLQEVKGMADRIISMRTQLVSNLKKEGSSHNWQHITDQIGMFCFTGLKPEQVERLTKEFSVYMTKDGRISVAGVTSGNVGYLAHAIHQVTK
UniProt P14602, whole entry: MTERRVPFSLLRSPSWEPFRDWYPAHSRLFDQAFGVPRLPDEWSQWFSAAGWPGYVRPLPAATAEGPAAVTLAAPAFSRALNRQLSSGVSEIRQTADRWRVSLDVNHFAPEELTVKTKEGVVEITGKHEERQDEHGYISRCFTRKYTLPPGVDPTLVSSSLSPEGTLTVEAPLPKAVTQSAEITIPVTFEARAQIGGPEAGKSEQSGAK
UniProt P16330: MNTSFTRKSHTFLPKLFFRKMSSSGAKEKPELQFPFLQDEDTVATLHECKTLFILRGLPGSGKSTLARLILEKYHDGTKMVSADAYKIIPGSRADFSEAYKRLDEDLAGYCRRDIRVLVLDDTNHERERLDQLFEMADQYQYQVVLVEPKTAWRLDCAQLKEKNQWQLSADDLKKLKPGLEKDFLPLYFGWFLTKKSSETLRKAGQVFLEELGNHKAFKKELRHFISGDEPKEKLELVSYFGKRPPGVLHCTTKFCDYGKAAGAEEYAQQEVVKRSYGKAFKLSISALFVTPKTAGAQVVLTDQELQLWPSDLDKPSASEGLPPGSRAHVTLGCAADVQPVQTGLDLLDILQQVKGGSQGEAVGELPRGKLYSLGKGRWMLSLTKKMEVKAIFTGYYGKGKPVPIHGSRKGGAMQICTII
UniProt P24549: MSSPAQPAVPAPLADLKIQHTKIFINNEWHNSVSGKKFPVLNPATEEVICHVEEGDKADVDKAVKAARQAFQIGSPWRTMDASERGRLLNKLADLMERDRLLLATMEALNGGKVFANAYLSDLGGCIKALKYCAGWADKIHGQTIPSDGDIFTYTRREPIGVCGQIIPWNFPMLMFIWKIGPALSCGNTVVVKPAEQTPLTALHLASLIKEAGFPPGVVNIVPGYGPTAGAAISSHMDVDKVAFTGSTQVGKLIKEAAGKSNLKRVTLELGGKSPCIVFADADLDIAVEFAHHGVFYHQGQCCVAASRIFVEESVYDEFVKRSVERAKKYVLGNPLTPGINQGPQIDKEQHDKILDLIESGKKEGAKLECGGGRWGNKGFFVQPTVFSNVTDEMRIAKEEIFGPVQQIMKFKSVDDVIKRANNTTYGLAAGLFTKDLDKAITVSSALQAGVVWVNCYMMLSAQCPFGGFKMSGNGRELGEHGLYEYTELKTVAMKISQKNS
UniProt P23589: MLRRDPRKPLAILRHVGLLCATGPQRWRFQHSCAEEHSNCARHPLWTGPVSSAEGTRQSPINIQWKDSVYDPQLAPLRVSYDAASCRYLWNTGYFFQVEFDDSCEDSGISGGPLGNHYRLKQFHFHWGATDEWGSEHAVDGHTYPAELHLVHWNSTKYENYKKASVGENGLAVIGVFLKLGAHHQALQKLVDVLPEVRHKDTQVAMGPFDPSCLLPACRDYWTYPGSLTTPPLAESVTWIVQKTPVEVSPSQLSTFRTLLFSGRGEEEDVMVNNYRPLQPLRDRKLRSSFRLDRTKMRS

What follows are targets tested with CN[C@@H]1C[C@H]2O[C@@](C)([C@@H]1OC)n1c3ccccc3c3c4c(c5c6ccccc6n2c5c31)C(=O)NC4 [staurosporine] (assay: log2 fold change of pooled soluble protein (PISA), ligand vs vehicle (log2 ratio); higher = more thermally stabilized). Conditions: ligand concentration: 20 uM; assay format: PISA pool 52.9/55.5/58.6 C.
With UniProt P01899 the “log2 fold change of pooled soluble protein” value (“log2 fold change” for short) was 0.0524.
In the case of UniProt P16254, the “log2 fold change” value is reported as 0.156.
In the case of UniProt P06745, the “log2 fold change” value is reported as -0.0343.
UniProt P13516 was tested, and the “log2 fold change” value was -0.0123.
In the case of UniProt P15535, the “log2 fold change” value is reported as -0.0242.
In the case of UniProt P08226, the “log2 fold change” value is reported as -0.0349.
With UniProt P12265 the “log2 fold change” value was -0.172.
UniProt P26928 was tested, and the “log2 fold change” value was 0.29.
With UniProt P14901 the “log2 fold change” value was 0.105.
UniProt P11688 was tested, and the “log2 fold change” value was -0.00233.
UniProt P05063 was tested, and the “log2 fold change” value was 0.156.
With UniProt P19973 the “log2 fold change” value was 0.151.
For UniProt P10649, the “log2 fold change” value was -0.0671.
With UniProt P09602 the “log2 fold change” value was 0.0803.
In the case of UniProt P07901, the “log2 fold change” value is reported as -0.0147.
For UniProt P27773, the “log2 fold change” value was 0.00123.
With UniProt P04919 the “log2 fold change” value was 0.0396.
In the case of UniProt P04186, the “log2 fold change” value is reported as -0.0043.
With UniProt P10922 the “log2 fold change” value was -0.0416.
With UniProt P08103 the “log2 fold change” value was 0.335.
For UniProt P10637, the “log2 fold change” value was -0.0208.
For UniProt P17095, the “log2 fold change” value was 0.0713.
UniProt P14152 was tested, and the “log2 fold change” value was -0.0159.
For UniProt P05202, the “log2 fold change” value was 0.00508.
With UniProt P14602 the “log2 fold change” value was -0.0225.
With UniProt P08003 the “log2 fold change” value was -0.0965.
UniProt P26150 was tested, and the “log2 fold change” value was -0.0974.
UniProt P11276 was tested, and the “log2 fold change” value was -0.0406.
For P17879;Q61696, the “log2 fold change” value was -0.121.
With UniProt P08030 the “log2 fold change” value was 0.08.
For UniProt P21440, the “log2 fold change” value was 0.0917.
For UniProt P16330, the “log2 fold change” value was -0.0604.
UniProt P24549 was tested, and the “log2 fold change” value was 0.1.
In the case of UniProt P27661, the “log2 fold change” value is reported as -0.0495.
With UniProt P23589 the “log2 fold change” value was -0.106.
For UniProt P08752, the “log2 fold change” value was 0.162.
UniProt P09925 was tested, and the “log2 fold change” value was -0.171.
